The target of the test is Recombinant wild-type phospholipid transfer protein (rPLTP) (human) (UniProt P55058). As to the kind of experiment: SPR; BIAcore 3000; rPLTP with C-terminal His-tag captured on anti-His tag monoclonal antibody immobilised on a CM5 chip; factor XII (0-750 nM) or factor XI injected; 50 mM Hepes, 150 mM NaCl, 5 mM CaCl2, pH 7.4; global fit, simple Langmuir model; apparent Kd; both purified. Background: Surface plasmon resonance follows binding to a sensor surface in real time, without labels.

Protein sequences, listed by entry. Tags and fused reporters are not part of them. Residues count along the entry.
UniProt P55058, residues 18-493: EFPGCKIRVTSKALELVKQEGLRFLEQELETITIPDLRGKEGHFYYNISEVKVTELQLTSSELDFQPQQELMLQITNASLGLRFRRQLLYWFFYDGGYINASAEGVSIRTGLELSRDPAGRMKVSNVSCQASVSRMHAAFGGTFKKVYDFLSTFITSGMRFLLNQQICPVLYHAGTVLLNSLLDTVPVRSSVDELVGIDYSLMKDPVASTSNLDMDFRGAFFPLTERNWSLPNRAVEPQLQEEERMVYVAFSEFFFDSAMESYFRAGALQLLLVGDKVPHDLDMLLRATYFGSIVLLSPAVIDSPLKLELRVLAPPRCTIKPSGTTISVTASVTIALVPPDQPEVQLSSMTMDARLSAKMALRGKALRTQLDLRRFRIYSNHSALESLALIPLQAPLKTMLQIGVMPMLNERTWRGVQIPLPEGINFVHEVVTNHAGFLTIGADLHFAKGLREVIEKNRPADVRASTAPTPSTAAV
UniProt P03951, residues 19-625: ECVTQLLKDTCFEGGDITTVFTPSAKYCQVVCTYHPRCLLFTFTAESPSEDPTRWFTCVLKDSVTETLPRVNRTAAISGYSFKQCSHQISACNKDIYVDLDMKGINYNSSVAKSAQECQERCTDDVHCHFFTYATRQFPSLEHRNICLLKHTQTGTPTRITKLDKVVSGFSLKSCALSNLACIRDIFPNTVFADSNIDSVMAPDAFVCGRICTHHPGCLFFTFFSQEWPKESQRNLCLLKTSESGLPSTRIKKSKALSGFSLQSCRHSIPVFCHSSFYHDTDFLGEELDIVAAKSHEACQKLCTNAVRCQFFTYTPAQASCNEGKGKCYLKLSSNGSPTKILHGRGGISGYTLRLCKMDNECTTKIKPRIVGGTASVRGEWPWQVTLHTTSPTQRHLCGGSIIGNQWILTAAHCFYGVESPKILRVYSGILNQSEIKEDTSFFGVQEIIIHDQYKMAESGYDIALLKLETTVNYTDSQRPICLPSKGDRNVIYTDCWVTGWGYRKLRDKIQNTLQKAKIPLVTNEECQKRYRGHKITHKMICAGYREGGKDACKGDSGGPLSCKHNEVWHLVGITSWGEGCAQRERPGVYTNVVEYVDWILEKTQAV

Results are given in words; binding and its absence hold for the method and conditions named.

We go through 1 substance from publication PMC4504036.

As to Factor XI (from UniProt P03951 19-625), the binding result is recorded as “no binding (tested: up to 500 nM)”.
